Experimental data published in patent publication US20120107364A1 (ACTGEN, published 2012).
These are yes or no findings as the source states them, for the method shown. Some binding calls cover weakened binding; strength is not graded here.

Biological target: T1, PODXL2, positions 1 to 428 (full-length extracellular region) (human) (UniProt O00592)
T1 sequence: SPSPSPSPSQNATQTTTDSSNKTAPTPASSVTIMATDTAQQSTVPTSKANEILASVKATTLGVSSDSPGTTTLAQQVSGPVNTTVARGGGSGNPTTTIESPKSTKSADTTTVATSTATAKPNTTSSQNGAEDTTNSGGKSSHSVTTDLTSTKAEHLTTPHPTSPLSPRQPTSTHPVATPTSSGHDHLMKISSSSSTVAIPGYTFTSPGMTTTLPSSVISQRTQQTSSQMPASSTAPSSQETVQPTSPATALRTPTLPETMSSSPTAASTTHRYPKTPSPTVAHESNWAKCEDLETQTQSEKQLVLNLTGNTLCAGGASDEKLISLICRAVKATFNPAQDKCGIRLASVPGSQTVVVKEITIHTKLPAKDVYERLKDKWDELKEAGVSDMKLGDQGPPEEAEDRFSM
Assay: flow cytometry on Ba/F3 cells expressing the truncated PODXL2

binding: binds
B1: ACT36-27-5D1 antibody (antibody, V domains shown)
VH: EVQLQQSGPELVKPGASVKMSCKASGYTFTSYVMHWVKQKPGQGLEWIGYIHPYNDGIKYNEKFKGKATLTSDKSSSTAYMDLSSLTSEDSAVYYCARSWDWYFDVWAAGTTVTVSS
VL: QIVLTQSPAIMSASPGEKVSMTCSASSSVSYMHWYQQKSGTSPKRWIYDTSKLASGVPARFSGSGSGTSYSLTISSMEAEDAATYYCLQWSSNPPTFGGGTKLE
notes: also called anti-PODXL2 antibody ACT36-27-5D1; anti-ACT36-27-5D1 monoclonal antibody
